{"sequences": {"note": "The chains behind the UniProt entries cited, without tags or fusion partners.", "UniProt Q14191, whole entry, looked up": "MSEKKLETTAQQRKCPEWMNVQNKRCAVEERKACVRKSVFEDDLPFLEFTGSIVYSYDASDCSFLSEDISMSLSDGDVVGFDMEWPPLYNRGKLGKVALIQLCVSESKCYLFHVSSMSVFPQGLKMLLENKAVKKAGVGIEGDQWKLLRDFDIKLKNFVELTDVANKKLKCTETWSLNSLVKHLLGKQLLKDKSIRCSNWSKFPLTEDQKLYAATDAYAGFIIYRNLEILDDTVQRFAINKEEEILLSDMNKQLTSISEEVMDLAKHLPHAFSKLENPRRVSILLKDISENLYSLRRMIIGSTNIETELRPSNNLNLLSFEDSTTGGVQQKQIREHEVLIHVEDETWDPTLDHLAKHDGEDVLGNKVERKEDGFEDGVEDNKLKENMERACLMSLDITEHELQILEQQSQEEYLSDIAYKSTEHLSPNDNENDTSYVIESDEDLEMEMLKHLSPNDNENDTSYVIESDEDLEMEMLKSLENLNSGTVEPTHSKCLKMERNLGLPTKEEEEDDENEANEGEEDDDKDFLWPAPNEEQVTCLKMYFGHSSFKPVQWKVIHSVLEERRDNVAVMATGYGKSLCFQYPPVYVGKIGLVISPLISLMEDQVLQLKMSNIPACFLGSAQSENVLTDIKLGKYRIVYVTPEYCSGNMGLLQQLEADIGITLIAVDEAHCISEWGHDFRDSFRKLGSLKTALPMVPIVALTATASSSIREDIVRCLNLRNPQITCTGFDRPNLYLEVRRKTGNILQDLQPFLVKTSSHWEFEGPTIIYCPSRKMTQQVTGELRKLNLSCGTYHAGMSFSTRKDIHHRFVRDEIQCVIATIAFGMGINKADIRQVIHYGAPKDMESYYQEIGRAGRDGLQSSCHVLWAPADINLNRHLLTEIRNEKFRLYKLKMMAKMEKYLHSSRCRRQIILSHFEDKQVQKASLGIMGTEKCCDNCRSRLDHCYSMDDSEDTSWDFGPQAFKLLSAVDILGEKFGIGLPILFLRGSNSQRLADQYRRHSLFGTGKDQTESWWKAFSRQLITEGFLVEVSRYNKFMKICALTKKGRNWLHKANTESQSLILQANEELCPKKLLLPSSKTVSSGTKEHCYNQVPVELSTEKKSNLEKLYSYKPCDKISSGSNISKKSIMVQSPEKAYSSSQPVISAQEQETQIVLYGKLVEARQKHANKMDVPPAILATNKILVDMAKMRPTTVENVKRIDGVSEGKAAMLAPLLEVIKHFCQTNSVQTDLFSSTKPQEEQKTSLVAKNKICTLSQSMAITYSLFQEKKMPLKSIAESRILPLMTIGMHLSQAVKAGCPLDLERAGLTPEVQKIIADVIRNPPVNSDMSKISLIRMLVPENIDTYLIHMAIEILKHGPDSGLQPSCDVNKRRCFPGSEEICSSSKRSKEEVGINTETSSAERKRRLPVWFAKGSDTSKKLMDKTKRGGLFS"}, "source": "PubChem BioAssay AID651768", "about": "(National Center for Advancing Translational Sciences (NCATS), 2012)", "note": "Hit rate of the full screen: of about 360,000 compounds, about 1,700 (0.47%) were called active. This list was built around the results that the source calls inconclusive (neither active nor inactive); the mix of calls is not that of the screen. Calls follow the shape of the dose curve; as a rule, active = well fitted inhibition curve with a large enough effect; inconclusive = small, poorly fitted or top-dose-only effect; inactive = no such curve, though single readings can be large or run the other way. Potencies of inconclusive entries are doubtful fits and often do not repeat. Some structures have more than one record in an assay (separate samples or runs), and their calls can disagree.", "data": [{"target": "Bifunctional 3'-5' exonuclease/ATP-dependent helicase WRN (Homo sapiens) (UniProt Q14191)", "test": "qHTS for Inhibitors of WRN Helicase; also: nearly all actives have a fitted effect of over 55% in size; also: potency is read from the fitted curve at half-maximal effect", "conditions": "WRN helicase unwinding, fluorescent forked duplex, kinetic; series mostly up to 114 µM", "procedure,_shortened": "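WRN at 20 nM final was preincubated with compound for 15 min at room temperature; reaction started with 100 nM forked duplex oligonucleotide carrying fluorophore and quencher plus 2 mM ATP (final). Unwinding followed kinetically by red fluorescence (ex 525/em 598 nm).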", "values": [{"compound": "CCOc1ccc(C(CC(=O)O)NC(=O)COc2ccccc2)cc1OC", "note": "(centres undefined)", "Potency": "inactive"}, {"compound": "CCOC(=O)/C=C(C)\\C=C\\c1c[nH]c2ccccc12", "Potency": "inconclusive: 3.55 µM [inhibitor, full curve, poor fit]"}, {"compound": "O=C(O)CN1C(=O)/C(=C/c2ccc(N3CCCCC3)o2)SC1=S", "Potency": "active: 4.74 µM"}, {"compound": "Cc1ccc(N=C2NC(=O)/C(=C/C=C/c3ccco3)S2)cc1C", "Potency": "inconclusive: 22.4 µM [inhibitor, partial curve]"}, {"compound": "CC1CCN(CC(=O)Nc2ccc(S(=O)(=O)N3CCC(C)CC3)cc2)CC1", "Potency": "inconclusive: 70.8 µM [inhibitor, single point]"}, {"compound": "COc1cccc(C(=O)/C=C/Nc2ccc(S(=O)(=O)Nc3cnc4ccccc4n3)cc2)c1", "Potency": "inconclusive: 50.1 µM [inhibitor, partial curve]"}, {"compound": "CC(=O)Nc1cccc(/C(C)=N/NC(=O)c2ccc(O)cc2)c1", "Potency": "inactive"}, {"compound": "Oc1ccccc1C1=Nc2ncnn2C(c2ccc(F)cc2)C1", "note": "(centres undefined)", "Potency": "inconclusive: 79.4 µM [inhibitor, partial curve]"}, {"compound": "O=C(NC1=NCCS1)c1cc(-c2cccs2)nc2ccccc12", "Potency": "inconclusive: 89.1 µM [inhibitor, single point]"}, {"compound": "CN(C)S(=O)(=O)c1cccc(-c2nn(-c3ccccc3)cc2/C=C(\\C#N)c2nc3ccccc3[nH]2)c1", "Potency": "inactive"}, {"compound": "CC1CCC(NC(=O)CCS(=O)(=O)c2ccc3c(c2)NC(=O)CO3)CC1", "note": "(centres undefined)", "Potency": "inactive"}, {"compound": "O=C(CSc1nnc2ccc(-c3ccco3)nn12)Nc1ccccc1F", "Potency": "inconclusive: 79.4 µM [inhibitor, single point]"}, {"compound": "Cc1c(N2C(=O)/C(=C\\c3ccc(N(C)C)cc3)N(C)C2=S)c(=O)n(-c2ccccc2)n1C", "Potency": "inconclusive: 25.1 µM [inhibitor, single point]"}, {"compound": "O=C(Nc1ccc2nc(-c3ccco3)c(-c3ccco3)nc2c1)N1CCCCCC1", "Potency": "active: 12.6 µM"}, {"compound": "COc1cc(/C=C2\\C(=N)N3N=CSC3=NC2=O)cc(Br)c1OC(=O)c1ccco1", "Potency": "inactive"}, {"compound": "COc1ccc2ccn(C)c2c1", "Potency": "inactive"}, {"compound": "CN(C)c1ccc(/C=N/Nc2ccc(-n3ccnc3)nn2)cc1", "Potency": "inconclusive: 79.4 µM [inhibitor, partial curve]"}, {"compound": "CCOC(=O)/C=C/C(=O)OCC(=O)Nc1ccc([N+](=O)[O-])cc1", "Potency": "inconclusive: 39.8 µM [inhibitor, partial curve]"}, {"compound": "COc1cc(/C=C2\\SC(=Nc3ccc(Cl)c(C(=O)O)c3)NC2=O)c(Br)c(Br)c1O", "Potency": "inconclusive: 2.38 µM [inhibitor, partial curve]"}, {"compound": "COc1ccc(OCCC(=O)OCC(=O)NCc2ccco2)cc1", "Potency": "inconclusive: 50.1 µM [inhibitor, partial curve]"}, {"compound": "COc1ccc(C(=O)NCC(=O)NCc2cc(=O)n(C)c(=O)n2C)cc1", "Potency": "inactive"}, {"compound": "CCOc1ccccc1OCC(=O)NCc1ccco1", "Potency": "inconclusive: 56.2 µM [inhibitor, partial curve]"}, {"compound": "O=C(Cc1c(F)cccc1Cl)NNC(=O)c1ccco1", "Potency": "inconclusive: 44.7 µM [inhibitor, partial curve]"}, {"compound": "O=C1C(=O)c2ccccc2C(O)=C1CC=C(Cl)Cl", "Potency": "inconclusive: 17.8 µM [inhibitor, full curve]"}, {"compound": "COc1cccc(N(CC(=O)NC2CCCCC2)C(=O)CCC(=O)Nc2nccs2)c1", "Potency": "inactive"}, {"compound": "COc1ccc(Nc2nc(N3CCCC3)nc3ccccc23)c(OC)c1", "Potency": "inconclusive: 44.7 µM [inhibitor, partial curve]"}, {"compound": "O=C(CCN1C(=O)/C(=C/c2ccco2)SC1=S)Nc1ccc(O)cc1C(=O)O", "Potency": "active: 31.6 µM"}, {"compound": "COc1cc2c(-c3ccc(O)cc3)nc3c(c(C)nn3-c3ccccc3)c2cc1OC", "Potency": "inconclusive: 13.4 µM [inhibitor, partial curve]"}, {"compound": "COC(=O)C1(Cc2ccc(O)cc2)OC(=O)C(O)=C1c1ccc(O)cc1", "note": "(centres undefined)", "Potency": "inconclusive: 56.2 µM [inhibitor, partial curve]"}, {"compound": "CC(C)=CCc1c(O)c(CC=C(C)C)c2c(c1O)C(=O)CC(c1ccc(O)cc1)O2", "note": "(centres undefined)", "Potency": "inactive"}, {"compound": "O=C(O)c1cc(-c2ccco2)nc2ccc(Br)cc12", "Potency": "active: 10 µM"}, {"compound": "O=c1c2cc(NC(=S)N3CCCC3)ccc2nc2n1CCCCC2", "Potency": "inactive"}, {"compound": "COc1ccc(C(=O)/C=C/Nc2ccc(S(=O)(=O)Nc3onc(C)c3C)cc2)cc1", "Potency": "inconclusive: 89.1 µM [inhibitor, partial curve, poor fit]"}, {"compound": "CCOc1ccc(CN(C)c2nc(-c3cccnc3)nc3ccccc23)cc1OC", "Potency": "inconclusive: 10 µM [inhibitor, partial curve]"}, {"compound": "NC(=O)CSc1nnc(-c2cccc(S(=O)(=O)N3CCOCC3)c2)n1C1CCCCCC1", "Potency": "inconclusive: 89.1 µM [inhibitor, single point]"}, {"compound": "CC(Cc1cccnc1)NC(=O)c1cc(COc2ccc(F)cc2Cl)on1", "note": "(centres undefined)", "Potency": "inconclusive: 89.1 µM [inhibitor, single point]"}, {"compound": "Cc1cc2[nH]c(=O)c(=O)[nH]c2cc1S(=O)(=O)N1CCN(c2cccc(C)c2C)CC1", "Potency": "inconclusive: 79.4 µM [inhibitor, partial curve]"}, {"compound": "O=C(O)c1[nH]c2ccc(Cl)cc2c1CC(=O)N1CCN(C(=O)c2ccco2)CC1", "Potency": "inconclusive: 16.8 µM [inhibitor, partial curve]"}, {"compound": "S=c1[nH]nc(-c2ccc(Cl)cc2Cl)n1Cc1ccccc1", "Potency": "inconclusive: 56.2 µM [inhibitor, partial curve, poor fit]"}, {"compound": "CCOc1ccc(C(=O)NCCc2cnc[nH]2)cc1OCC", "Potency": "inactive"}, {"compound": "CC(=O)N(c1ccc2oc(=O)sc2c1)S(=O)(=O)c1ccc(C(=O)O)cc1", "Potency": "inconclusive: 44.7 µM [inhibitor, partial curve]"}, {"compound": "COc1cccc(/C=N/Nc2cc(-n3nc(C)cc3-c3ccccc3)ncn2)c1O", "Potency": "inactive"}, {"compound": "CC(C)(C)OC(=O)N1CCC(C(=O)NCC2CCCO2)CC1", "note": "(centres undefined)", "Potency": "inconclusive: 10 µM [inhibitor, full curve, poor fit]"}, {"compound": "CCNC(=S)N=Nc1c(O)[nH]c2ccc([N+](=O)[O-])cc12", "Potency": "inconclusive: 79.4 µM [inhibitor, partial curve]"}]}]}
